Drawing on patent US20170204445A1, “IN VIVO SITE-SPECIFIC PROTEIN TAGGING USING ENGINEERED SORTASE VARIANTS” (priority 2016, published 2017), this text covers binding for one substance.

The chains behind the UniProt entries cited, without tags or fusion partners. Where a name states a change or a piece, a line headed by the entry shows the natural chain unless it says otherwise. Residues count along the entry.
UniProt P08581, residues 25-932: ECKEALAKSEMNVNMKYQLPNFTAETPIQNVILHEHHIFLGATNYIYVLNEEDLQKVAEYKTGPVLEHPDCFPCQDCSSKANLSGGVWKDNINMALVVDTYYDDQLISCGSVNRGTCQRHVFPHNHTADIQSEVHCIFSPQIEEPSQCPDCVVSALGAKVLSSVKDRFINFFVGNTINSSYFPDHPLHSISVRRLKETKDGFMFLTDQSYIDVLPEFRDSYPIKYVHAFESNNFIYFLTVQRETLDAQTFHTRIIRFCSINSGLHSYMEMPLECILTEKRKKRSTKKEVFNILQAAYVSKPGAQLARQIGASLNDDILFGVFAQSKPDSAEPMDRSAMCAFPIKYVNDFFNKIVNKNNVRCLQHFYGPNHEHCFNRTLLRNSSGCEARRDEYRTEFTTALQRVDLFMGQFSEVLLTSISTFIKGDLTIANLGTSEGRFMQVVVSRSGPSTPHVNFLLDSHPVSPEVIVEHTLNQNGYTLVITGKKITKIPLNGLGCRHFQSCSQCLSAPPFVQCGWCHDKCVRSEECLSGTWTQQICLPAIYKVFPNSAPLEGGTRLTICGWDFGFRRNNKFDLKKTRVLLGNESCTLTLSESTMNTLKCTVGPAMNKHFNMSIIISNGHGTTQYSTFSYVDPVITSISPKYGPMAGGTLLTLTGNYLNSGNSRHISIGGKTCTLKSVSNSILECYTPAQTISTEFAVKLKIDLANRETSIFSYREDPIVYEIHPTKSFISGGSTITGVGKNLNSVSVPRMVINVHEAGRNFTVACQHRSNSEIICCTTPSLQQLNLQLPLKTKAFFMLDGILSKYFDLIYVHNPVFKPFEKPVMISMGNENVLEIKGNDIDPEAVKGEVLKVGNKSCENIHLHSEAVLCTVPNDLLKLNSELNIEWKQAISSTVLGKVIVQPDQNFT
UniProt P14210: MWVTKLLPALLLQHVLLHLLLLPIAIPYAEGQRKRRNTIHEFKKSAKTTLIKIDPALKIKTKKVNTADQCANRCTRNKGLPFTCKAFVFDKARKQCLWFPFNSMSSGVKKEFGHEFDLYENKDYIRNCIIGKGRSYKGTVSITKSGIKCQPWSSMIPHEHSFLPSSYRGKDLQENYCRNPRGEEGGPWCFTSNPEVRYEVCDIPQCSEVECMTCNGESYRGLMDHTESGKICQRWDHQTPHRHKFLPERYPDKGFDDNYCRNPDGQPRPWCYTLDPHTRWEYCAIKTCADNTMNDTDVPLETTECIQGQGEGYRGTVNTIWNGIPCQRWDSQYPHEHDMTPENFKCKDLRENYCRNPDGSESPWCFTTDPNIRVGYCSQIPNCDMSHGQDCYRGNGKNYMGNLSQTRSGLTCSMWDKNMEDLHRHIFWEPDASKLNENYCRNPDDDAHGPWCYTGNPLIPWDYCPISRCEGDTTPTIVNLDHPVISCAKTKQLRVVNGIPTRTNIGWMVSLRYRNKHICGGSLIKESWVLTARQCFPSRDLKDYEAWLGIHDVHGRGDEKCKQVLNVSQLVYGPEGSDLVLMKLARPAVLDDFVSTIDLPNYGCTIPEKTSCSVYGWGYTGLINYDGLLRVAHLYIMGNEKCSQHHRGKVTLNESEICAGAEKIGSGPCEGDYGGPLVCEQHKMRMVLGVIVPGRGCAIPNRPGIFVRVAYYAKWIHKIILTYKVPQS

Results are given in words; binding and its absence hold for the method and conditions named. Some entries that bind do so weakly or less than the wild type.

For the assay, the target named is recombinant human Met-Fc (R&D Systems, 358-MT-100) (human) (UniProt P08581). Description: yeast surface display, flow cytometry titration with Met-Fc. For orientation: In flow cytometry, cells or beads pass a laser one at a time.

Take “NK1 displayed on yeast with pCL-NK1-Aga2p-cGFP (from UniProt P14210 28-210; P32781 19-87; P42212 1-238) (ligand)”: the binding result was “binds”.
